Data source: PubChem BioAssay AID652272 (Drosophila RNAi Screening Center, 2013)

Purpose: 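Genome-wide knock-down search for components of Hedgehog signalling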 (primary screen)
System: Drosophila clone 8 (Cl8) cells
Reagent: long dsRNA against Drosophila genes
Read-out: 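Firefly light from a Hedgehog-responsive ptc promoter reporter and Renilla reference light, both read on a plate reader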
Reading the numbers: firefly Hh reporter signal: higher = more ptc reporter light; Renilla reference signal: higher = more Renilla control light
Call rule: 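Called a hit if the two-replicate mean z-score lies below -2 or above +3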
Calls: active = hit: reporter lowered or raised; inactive = not a hit
The screen tested about 21,000 reagents; this is a random part of those that have a named target and a result. Over the whole deposit, 503 (2.4%) were called active. 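Raw plate light values, not normalised; calls rest on replicate z-scores that were not deposited; hits include reporter decreases as well as increases.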 Entries without a mark were called inactive. Names joined by + are all predicted targets of the reagent. Not stated in the record: the amount of reagent, the time to read-out.

Knock-down of Dsk (Drosulfakinin) [DRSC12347] gave: firefly Hh reporter signal, replicate 1 = 68233; firefly Hh reporter signal, replicate 2 = 1.02e5; Renilla reference signal, replicate 1 = 2331; Renilla reference signal, replicate 2 = 2905.
After knock-down of Rbf2 (Retinoblastoma-family protein 2) [DRSC16816], the screen gave firefly Hh reporter signal, replicate 1 = 83318; firefly Hh reporter signal, replicate 2 = 1.18e5; Renilla reference signal, replicate 1 = 2027; Renilla reference signal, replicate 2 = 7980.
CG12194 [DRSC00345] showed firefly Hh reporter signal, replicate 1 = 1.05e5; firefly Hh reporter signal, replicate 2 = 73812; Renilla reference signal, replicate 1 = 2768; Renilla reference signal, replicate 2 = 5437.
Against dpr7 (defective proboscis extension response 7) [DRSC17109], the values are firefly Hh reporter signal, replicate 1 = 4.22e5; firefly Hh reporter signal, replicate 2 = 1.90e5; Renilla reference signal, replicate 1 = 19977; Renilla reference signal, replicate 2 = 4040.
Against CG14297 [DRSC14776], the entry reads firefly Hh reporter signal, replicate 1 = 5.30e5; firefly Hh reporter signal, replicate 2 = 1.40e5; Renilla reference signal, replicate 1 = 26038; Renilla reference signal, replicate 2 = 3877.
REG (Proteasome regulator gamma) [DRSC20273] scored firefly Hh reporter signal, replicate 1 = 63787; firefly Hh reporter signal, replicate 2 = 2.92e5; Renilla reference signal, replicate 1 = 1992; Renilla reference signal, replicate 2 = 11200.
dmGlut (Dietary and metabolic glutamate transporter) [DRSC02835] gave firefly Hh reporter signal, replicate 1 = 87228; firefly Hh reporter signal, replicate 2 = 58771; Renilla reference signal, replicate 1 = 3621; Renilla reference signal, replicate 2 = 2438.
After knock-down of Proc (Proctolin) [DRSC03009] the results were firefly Hh reporter signal, replicate 1 = 28020; firefly Hh reporter signal, replicate 2 = 8987; Renilla reference signal, replicate 1 = 1050; Renilla reference signal, replicate 2 = 1027.
With knock-down of CG11267 [DRSC09833], the screen gave firefly Hh reporter signal, replicate 1 = 44576; firefly Hh reporter signal, replicate 2 = 69378; firefly Hh reporter signal, replicate 3 = 53626; Renilla reference signal, replicate 1 = 5595; Renilla reference signal, replicate 2 = 3635.
After knock-down of Neurochondrin [DRSC12580], the screen gave firefly Hh reporter signal, replicate 1 = 1.00e5; firefly Hh reporter signal, replicate 2 = 81243; Renilla reference signal, replicate 1 = 4348; Renilla reference signal, replicate 2 = 3288.

Part of the list above, set out differently.
| gene | DRSC id | firefly Hh reporter signal, replicate 1 | firefly Hh reporter signal, replicate 2 | firefly Hh reporter signal, replicate 3 | Renilla reference signal, replicate 1 | Renilla reference signal, replicate 2 |
| --- | --- | --- | --- | --- | --- | --- |
| Dsk (Drosulfakinin) | DRSC12347 | 68233 | 1.02e5 | – | 2331 | 2905 |
| Rbf2 (Retinoblastoma-family protein 2) | DRSC16816 | 83318 | 1.18e5 | – | 2027 | 7980 |

The list goes on:
Knock-down of Smug [DRSC15762] resulted in: firefly Hh reporter signal, replicate 1 = 1.02e5; firefly Hh reporter signal, replicate 2 = 1.06e5; Renilla reference signal, replicate 1 = 2160; Renilla reference signal, replicate 2 = 7286.
CG8501 [DRSC07198] gave firefly Hh reporter signal, replicate 1 = 75446; firefly Hh reporter signal, replicate 2 = 51748; Renilla reference signal, replicate 1 = 3664; Renilla reference signal, replicate 2 = 2132.
Depletion of Es2 [DRSC18663] resulted in: firefly Hh reporter signal, replicate 1 = 89190; firefly Hh reporter signal, replicate 2 = 72106; Renilla reference signal, replicate 1 = 2312; Renilla reference signal, replicate 2 = 2168.
Depletion of dop (drop out) [DRSC10655] came out at: firefly Hh reporter signal, replicate 1 = 80786; firefly Hh reporter signal, replicate 2 = 32521; Renilla reference signal, replicate 1 = 2806; Renilla reference signal, replicate 2 = 1296.
T3dh + pgc [DRSC04659] showed firefly Hh reporter signal, replicate 1 = 55858; firefly Hh reporter signal, replicate 2 = 41136; Renilla reference signal, replicate 1 = 2371; Renilla reference signal, replicate 2 = 1810.
Silencing of zip (zipper) [DRSC04725] came out at: firefly Hh reporter signal, replicate 1 = 1.00e5; firefly Hh reporter signal, replicate 2 = 6.32e5; firefly Hh reporter signal, replicate 3 = 98966; Renilla reference signal, replicate 1 = 2072; Renilla reference signal, replicate 2 = 38080.
For caps (capricious) [DRSC11333], the values are firefly Hh reporter signal, replicate 1 = 22643; firefly Hh reporter signal, replicate 2 = 42647; firefly Hh reporter signal, replicate 3 = 52232; Renilla reference signal, replicate 1 = 3499; Renilla reference signal, replicate 2 = 3584.
With knock-down of Polr2J (RNA polymerase II subunit J) [DRSC02995], the screen gave firefly Hh reporter signal, replicate 1 = 1.25e5; firefly Hh reporter signal, replicate 2 = 71241; Renilla reference signal, replicate 1 = 2932; Renilla reference signal, replicate 2 = 5728.
Cpr92A (Cuticular protein 92A) [DRSC16000] showed firefly Hh reporter signal, replicate 1 = 7.43e5; firefly Hh reporter signal, replicate 2 = 1.24e5; Renilla reference signal, replicate 1 = 41276; Renilla reference signal, replicate 2 = 2689.
For CG43057 [DRSC01015] the deposit lists firefly Hh reporter signal, replicate 1 = 5.00e5; firefly Hh reporter signal, replicate 2 = 2.48e5; Renilla reference signal, replicate 1 = 27572; Renilla reference signal, replicate 2 = 10552.
CG4984 + CG4975 [DRSC06907] scored firefly Hh reporter signal, replicate 1 = 1.00e5; firefly Hh reporter signal, replicate 2 = 38560; Renilla reference signal, replicate 1 = 2725; Renilla reference signal, replicate 2 = 3127.
Against CG4984 + CG4975 [DRSC06908], the entry reads firefly Hh reporter signal, replicate 1 = 1.21e5; firefly Hh reporter signal, replicate 2 = 1.07e5; Renilla reference signal, replicate 1 = 5680; Renilla reference signal, replicate 2 = 4756.
